These are yes or no findings as the source states them, for the method shown. Binding seen in cells or lysates may run through a third protein. Some binding calls cover weakened binding; strength is not graded here. For some of these results: Sequences can lack the tags named with a protein.

Protein sequences, listed by entry. Tags and fused reporters are not part of them.
UniProt F4I735: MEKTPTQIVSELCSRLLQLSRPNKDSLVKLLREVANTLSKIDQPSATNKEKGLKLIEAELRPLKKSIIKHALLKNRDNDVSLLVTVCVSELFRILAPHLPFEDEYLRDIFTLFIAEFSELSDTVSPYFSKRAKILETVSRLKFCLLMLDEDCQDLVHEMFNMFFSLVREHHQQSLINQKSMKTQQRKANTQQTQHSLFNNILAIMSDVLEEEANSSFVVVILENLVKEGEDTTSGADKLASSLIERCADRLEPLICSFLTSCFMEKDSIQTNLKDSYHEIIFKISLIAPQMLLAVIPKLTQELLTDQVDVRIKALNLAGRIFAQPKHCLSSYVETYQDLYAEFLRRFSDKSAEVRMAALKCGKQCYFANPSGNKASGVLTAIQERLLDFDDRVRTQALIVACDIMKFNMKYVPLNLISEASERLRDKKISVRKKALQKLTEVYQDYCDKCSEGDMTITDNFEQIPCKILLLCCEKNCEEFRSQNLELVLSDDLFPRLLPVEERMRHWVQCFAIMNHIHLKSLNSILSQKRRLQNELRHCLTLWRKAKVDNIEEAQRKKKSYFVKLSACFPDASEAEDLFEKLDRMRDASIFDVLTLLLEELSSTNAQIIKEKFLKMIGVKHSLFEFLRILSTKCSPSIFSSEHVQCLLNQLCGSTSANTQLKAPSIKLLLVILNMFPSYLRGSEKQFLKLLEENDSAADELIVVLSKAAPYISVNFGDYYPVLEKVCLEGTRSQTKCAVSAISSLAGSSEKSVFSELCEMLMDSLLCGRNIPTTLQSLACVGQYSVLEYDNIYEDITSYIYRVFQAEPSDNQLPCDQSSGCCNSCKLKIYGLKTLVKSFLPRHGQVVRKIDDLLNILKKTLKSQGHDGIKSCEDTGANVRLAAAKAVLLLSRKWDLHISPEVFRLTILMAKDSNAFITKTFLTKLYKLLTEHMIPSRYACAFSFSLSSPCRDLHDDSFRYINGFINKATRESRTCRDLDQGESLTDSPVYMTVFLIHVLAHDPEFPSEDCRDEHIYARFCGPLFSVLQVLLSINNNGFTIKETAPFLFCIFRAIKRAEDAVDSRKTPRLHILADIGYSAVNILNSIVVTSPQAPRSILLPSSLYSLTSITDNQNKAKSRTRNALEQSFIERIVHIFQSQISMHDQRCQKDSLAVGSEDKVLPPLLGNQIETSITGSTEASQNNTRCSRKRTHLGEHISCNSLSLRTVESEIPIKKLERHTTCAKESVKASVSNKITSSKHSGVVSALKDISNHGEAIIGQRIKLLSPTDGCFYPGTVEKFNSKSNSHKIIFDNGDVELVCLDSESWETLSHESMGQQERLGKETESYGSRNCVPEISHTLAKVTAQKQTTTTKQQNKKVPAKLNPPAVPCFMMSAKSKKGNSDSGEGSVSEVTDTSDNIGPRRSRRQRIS
UniProt Q9FGN8: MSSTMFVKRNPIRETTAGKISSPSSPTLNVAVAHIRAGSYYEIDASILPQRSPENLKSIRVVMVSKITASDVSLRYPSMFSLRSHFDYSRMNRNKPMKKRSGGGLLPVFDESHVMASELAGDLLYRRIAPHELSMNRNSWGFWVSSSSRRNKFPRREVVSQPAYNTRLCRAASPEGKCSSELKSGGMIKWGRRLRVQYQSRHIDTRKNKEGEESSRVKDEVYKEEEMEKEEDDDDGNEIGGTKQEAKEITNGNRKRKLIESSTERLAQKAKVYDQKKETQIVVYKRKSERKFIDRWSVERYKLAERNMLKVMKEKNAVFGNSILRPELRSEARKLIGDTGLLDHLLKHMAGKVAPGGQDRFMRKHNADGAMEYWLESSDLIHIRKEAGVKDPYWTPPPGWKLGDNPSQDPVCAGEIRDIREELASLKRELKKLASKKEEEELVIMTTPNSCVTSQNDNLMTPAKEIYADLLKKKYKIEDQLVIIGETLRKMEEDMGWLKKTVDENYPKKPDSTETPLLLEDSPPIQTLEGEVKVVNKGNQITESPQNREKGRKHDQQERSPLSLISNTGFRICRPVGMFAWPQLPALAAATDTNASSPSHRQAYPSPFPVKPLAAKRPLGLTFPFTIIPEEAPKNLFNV

Holding throughout (experiment): split reporter
In test [1] the target is PDS5B, BiFC fusion (Arabidopsis thaliana) (UniProt F4I735).
The target in test [2] is T1, PDS5C, BiFC fusion (Arabidopsis thaliana) (UniProt Q8GUP3).
T1 sequence: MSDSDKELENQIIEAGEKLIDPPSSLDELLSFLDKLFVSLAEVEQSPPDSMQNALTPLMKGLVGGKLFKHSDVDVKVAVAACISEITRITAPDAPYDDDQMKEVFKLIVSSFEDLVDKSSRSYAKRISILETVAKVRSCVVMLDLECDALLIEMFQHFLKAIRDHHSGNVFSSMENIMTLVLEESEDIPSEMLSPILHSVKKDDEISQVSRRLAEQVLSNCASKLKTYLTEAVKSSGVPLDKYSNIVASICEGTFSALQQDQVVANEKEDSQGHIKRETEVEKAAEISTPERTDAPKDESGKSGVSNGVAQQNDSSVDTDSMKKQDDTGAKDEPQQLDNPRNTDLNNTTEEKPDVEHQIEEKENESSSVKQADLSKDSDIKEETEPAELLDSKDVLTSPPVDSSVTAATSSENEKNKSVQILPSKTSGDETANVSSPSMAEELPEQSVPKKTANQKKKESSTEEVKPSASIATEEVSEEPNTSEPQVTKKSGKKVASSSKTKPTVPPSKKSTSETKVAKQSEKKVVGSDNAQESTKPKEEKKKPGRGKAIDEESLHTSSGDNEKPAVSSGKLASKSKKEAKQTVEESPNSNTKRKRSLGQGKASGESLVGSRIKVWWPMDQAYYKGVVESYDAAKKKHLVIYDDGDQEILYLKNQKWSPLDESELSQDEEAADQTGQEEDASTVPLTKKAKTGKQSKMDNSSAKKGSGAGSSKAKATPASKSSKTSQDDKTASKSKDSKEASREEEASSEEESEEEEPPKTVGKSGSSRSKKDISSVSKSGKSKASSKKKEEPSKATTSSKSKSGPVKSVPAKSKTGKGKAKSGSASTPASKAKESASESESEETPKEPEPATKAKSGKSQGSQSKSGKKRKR

The target in test [3] is T2, PDS5D, BiFC fusion (Arabidopsis thaliana) (UniProt A8MRD9).
T2 sequence: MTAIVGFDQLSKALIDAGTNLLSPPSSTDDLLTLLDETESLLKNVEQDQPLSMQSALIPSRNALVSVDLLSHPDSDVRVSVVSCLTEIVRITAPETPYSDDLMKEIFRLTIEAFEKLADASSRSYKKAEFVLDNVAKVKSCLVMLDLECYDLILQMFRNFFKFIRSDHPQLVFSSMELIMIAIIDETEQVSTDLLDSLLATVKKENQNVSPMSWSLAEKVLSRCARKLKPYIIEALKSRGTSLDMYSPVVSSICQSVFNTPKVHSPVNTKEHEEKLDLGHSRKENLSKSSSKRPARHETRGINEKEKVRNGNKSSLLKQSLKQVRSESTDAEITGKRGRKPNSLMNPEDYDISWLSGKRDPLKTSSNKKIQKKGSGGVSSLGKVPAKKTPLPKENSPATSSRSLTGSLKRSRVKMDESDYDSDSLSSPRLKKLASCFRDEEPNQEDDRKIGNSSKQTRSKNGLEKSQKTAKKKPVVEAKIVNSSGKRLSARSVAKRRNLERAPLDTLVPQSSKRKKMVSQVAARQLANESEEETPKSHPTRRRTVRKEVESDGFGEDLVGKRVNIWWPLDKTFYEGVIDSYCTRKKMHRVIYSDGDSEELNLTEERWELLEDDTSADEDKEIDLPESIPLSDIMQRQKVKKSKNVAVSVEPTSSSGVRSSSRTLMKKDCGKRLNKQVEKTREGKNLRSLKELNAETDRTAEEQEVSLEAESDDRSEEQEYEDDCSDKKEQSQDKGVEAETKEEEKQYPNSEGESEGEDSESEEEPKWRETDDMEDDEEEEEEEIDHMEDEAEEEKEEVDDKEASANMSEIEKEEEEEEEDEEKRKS

Test [4] concerns the target T3, PDS5E, BiFC fusion (Arabidopsis thaliana) (UniProt Q9S9P0).
T3 sequence: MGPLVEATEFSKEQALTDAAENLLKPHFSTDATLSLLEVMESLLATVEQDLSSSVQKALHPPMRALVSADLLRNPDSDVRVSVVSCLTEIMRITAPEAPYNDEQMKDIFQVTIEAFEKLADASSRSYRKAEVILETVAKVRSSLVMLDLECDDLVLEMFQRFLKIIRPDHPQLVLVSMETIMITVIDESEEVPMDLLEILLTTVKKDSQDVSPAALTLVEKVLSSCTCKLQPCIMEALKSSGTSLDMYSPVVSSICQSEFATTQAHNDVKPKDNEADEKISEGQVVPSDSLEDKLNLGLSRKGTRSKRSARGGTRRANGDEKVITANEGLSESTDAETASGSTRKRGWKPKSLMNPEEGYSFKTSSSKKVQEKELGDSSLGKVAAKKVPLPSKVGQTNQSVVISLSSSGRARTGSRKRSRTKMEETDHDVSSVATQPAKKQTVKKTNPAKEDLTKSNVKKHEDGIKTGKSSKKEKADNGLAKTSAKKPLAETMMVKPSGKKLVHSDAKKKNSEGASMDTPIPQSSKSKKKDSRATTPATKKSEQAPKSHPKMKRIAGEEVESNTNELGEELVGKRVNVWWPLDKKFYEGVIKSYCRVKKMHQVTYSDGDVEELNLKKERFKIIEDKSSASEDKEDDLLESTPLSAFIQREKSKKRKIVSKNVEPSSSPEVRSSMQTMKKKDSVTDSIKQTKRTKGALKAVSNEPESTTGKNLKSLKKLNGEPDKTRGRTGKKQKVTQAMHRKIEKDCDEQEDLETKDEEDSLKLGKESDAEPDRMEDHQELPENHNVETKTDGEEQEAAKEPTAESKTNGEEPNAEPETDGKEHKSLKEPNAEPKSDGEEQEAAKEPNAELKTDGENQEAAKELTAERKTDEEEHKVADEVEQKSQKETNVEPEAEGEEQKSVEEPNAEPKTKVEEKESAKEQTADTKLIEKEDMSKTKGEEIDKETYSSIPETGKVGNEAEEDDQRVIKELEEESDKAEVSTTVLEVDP

With “SWI1, BiFC fusion (from UniProt Q9FGN8 1-639)”, the binding result in test [1] is given as “binds weakly”; in test [2] it was “binds”; in test [3], “binds weakly”; in test [4], “binds”.

Values taken from article doi:10.1101/551317.
